These are yes or no findings as the source states them, for the method shown. Binding seen in cells or lysates may run through a third protein. Some binding calls cover weakened binding; strength is not graded here.

Amino acid sequences for entries named in this document (tags omitted).
UniProt P40763: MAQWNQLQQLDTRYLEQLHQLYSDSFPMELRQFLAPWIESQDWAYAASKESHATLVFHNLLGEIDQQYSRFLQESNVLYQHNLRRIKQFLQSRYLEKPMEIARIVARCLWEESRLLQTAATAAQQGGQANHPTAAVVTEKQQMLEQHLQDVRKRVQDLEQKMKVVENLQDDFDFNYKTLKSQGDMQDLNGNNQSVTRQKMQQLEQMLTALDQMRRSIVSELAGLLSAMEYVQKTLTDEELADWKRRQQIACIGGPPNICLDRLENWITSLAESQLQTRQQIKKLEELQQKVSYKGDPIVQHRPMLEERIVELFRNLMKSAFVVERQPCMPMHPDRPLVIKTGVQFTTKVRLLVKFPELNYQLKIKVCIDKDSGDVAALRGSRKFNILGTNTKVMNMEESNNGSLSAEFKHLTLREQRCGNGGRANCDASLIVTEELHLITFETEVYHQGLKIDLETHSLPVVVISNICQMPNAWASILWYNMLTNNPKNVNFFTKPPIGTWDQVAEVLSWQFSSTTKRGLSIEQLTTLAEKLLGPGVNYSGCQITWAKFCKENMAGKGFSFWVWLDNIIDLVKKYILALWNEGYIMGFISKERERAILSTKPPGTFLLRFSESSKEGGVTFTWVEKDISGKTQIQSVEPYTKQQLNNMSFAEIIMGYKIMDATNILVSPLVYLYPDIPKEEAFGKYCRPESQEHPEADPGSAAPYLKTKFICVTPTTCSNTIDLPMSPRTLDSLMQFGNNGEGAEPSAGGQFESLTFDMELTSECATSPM
UniProt Q9NRC8: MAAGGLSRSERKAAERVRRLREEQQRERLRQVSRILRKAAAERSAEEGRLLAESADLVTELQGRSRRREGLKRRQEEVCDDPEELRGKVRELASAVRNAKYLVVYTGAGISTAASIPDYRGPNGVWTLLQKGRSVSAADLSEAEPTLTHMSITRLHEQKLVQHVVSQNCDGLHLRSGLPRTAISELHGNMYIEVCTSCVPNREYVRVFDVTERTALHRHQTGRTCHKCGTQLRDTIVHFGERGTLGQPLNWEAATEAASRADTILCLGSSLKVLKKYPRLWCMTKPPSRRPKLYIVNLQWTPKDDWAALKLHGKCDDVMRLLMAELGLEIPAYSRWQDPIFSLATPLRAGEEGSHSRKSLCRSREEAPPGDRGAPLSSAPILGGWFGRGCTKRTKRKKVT

In experiment [1] the target is Signal Transducer and Activator of Transcription 3 (STAT3), endogenous (human (endogenous in HEK293T)) (UniProt P40763). In words: co-IP; endogenous proteins; HEK293T lysate incubated with anti-SIRT7, anti-STAT3 or isotype control IgG overnight at 4°C, Protein A/G magnetic beads 2 h at 4°C, immunoblotting.
Experiment [2] addresses Signal Transducer and Activator of Transcription 3 (STAT3), exogenous, tagged (UniProt P40763). Briefly: co-IP; exogenous proteins; HEK293T lysate incubated with anti-Flag, anti-HA or isotype control IgG overnight at 4°C, Protein A/G magnetic beads 2 h at 4°C, immunoblotting.

On to “Sirtuin 7 (SIRT7), endogenous (from UniProt Q9NRC8 1-400)”, for which the binding result in experiment [1] is listed as “binds”.

“Sirtuin 7 (SIRT7), exogenous, tagged (from UniProt Q9NRC8 1-400)”: in experiment [2], the binding entry is on record as “binds”.

(Values after publication PMC12263510.)
